# In PubChem BioAssay AID624156 (Broad Institute, 2012):
# Among all 46,000 compounds or so, about 900 (2%) were called active. Inconclusive results, whose numbers are uncertain, are shown with a selection of clear calls. No stated cut-off is given here; in the data, active means ROS induction above about 79% (passing the limit was not always enough); inconclusive means no clear call, values can overlap the other calls.
# Assay: ROS inducers in U2OS cancer cells, primary screen, cell-based, H2DCF-DA fluorescence (AID 624156);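 further: 0% = DMSO vehicle median and 100% = reference compound median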
# Settings: at 10 µM, hits give high values
row,Compound,ROS induction (% of piperlongumine)
1,Nc1ccc(C(=O)Nc2ccc(O)c(-c3nc4ccccc4o3)c2)cc1,inconclusive: 88%
2,C[C@H]1CN([C@@H](C)CO)C(=O)c2cc(NC(=O)Cc3cn(C)c4ccccc34)ccc2O[C@@H]1CN(C)Cc1ccc(Oc2ccccc2)cc1,active: 134%
3,COc1ccc(NC(C)=S)cc1C,inactive: -0.854%
4,C[C@H]1CN([C@@H](C)CO)C(=O)Cc2cc(NC(=O)Cn3cnnn3)ccc2O[C@@H]1CN(C)C(=O)Nc1cccc2ccccc12,inconclusive: 78.4%
5,COc1ccc(NC(=O)Nc2ccc3c(c2)C(=O)N([C@H](C)CO)C[C@H](C)[C@H](CN(C)C(=O)Nc2ccc(C(F)(F)F)cc2)O3)cc1,inconclusive: 76%
6,C[C@@H]1CN([C@H](C)CO)C(=O)Cc2cc(NC(=O)Cc3ccccc3)ccc2O[C@@H]1CN(C)S(=O)(=O)c1ccc(Cl)cc1,inconclusive: 78.7%
7,C[C@@H]1CCCCO[C@@H](CN(C)S(=O)(=O)c2ccccc2)[C@@H](C)CN([C@H](C)CO)C(=O)c2cc(NC(=O)Nc3ccccc3)ccc2O1,inconclusive: 77.6%
8,CCC(C)NC(=O)c1c[nH]c2ccc(S(=O)(=O)N(C)c3cc(C)ccc3C)cc2c1=O (stereo not given),inconclusive: 85.6%
9,FC(F)(F)c1cccc(NC(=S)N2CCCC2)c1,inconclusive: 75.5%
10,C=CCNC(=O)[C@H]1[C@@H]2C(=O)O[C@@H](c3ccccc3)[C@@H](c3ccccc3)N2[C@@H](c2ccc(OCCO)cc2)[C@]12C(=O)N(C(=O)OCCOC)c1ccc(C#CCC(C(=O)OC)C(=O)OC)cc12,active: 157%
11,COc1ccc([Si](C)(C)[C@@H]2[C@@H](CCn3cc([C@H](O)c4ccccc4)nn3)O[C@]3(C(=O)N(C)c4ccccc43)[C@H]2C)cc1,inconclusive: 77.2%
12,NC(=O)C(Cc1ccccc1)NS(=O)(=O)c1ccc2oc3ccccc3c2c1 (stereo not given),active: 165%
13,Cc1cc2nc(SCC(=O)NN)[nH]c2cc1C,inactive: -26.3%
14,COc1ccc(-c2oc3ncn(Cc4ccccc4)c(=N)c3c2-c2ccc(OC)cc2)cc1,inconclusive: 104%
15,C[C@H](CO)N1C[C@H](C)[C@H](CN(C)C(=O)Nc2ccc(F)cc2)Oc2ncc(C#Cc3ccc(F)cc3)cc2C1=O,inconclusive: 82%
16,C[C@@H]1CCCCO[C@@H](CN(C)S(=O)(=O)c2ccc(F)cc2)[C@@H](C)CN([C@H](C)CO)C(=O)c2cc(NC(=O)Nc3ccc4c(c3)OCO4)ccc2O1,inconclusive: 85.5%
17,C[C@@H]1CCCCO[C@@H](CN(C)C(=O)C2CCCCC2)[C@@H](C)CN([C@H](C)CO)C(=O)c2cc(NS(=O)(=O)c3ccc(F)cc3)ccc2O1,inconclusive: 89.1%
18,Cc1csc2nc(SCC(=O)Nc3ccc([N+](=O)[O-])cc3)[nH]c(=O)c12,inconclusive: 75.7%
19,Cn1c(SCCCN2C(=O)c3cccc4cccc(c34)C2=O)nnc1-c1cccs1,inactive: 37.8%
20,CC(NC(=O)c1cnn2c(C(F)(F)F)cc(-c3cccs3)nc12)c1ccccc1 (stereo not given),active: 84.9%

# Given bar-delimited: part of the list above.
row | Compound | ROS induction (% of piperlongumine)
11 | COc1ccc([Si](C)(C)[C@@H]2[C@@H](CCn3cc([C@H](O)c4ccccc4)nn3)O[C@]3(C(=O)N(C)c4ccccc43)[C@H]2C)cc1 | inconclusive: 77.2%
15 | C[C@H](CO)N1C[C@H](C)[C@H](CN(C)C(=O)Nc2ccc(F)cc2)Oc2ncc(C#Cc3ccc(F)cc3)cc2C1=O | inconclusive: 82%

# Next compounds

row,Compound,ROS induction (% of piperlongumine)
1,O=C(Nc1cc(C(=O)Nc2ccccc2O)cc(C(=O)Nc2ccccc2O)c1)c1ccccc1,active: 97.5%
2,CC(C)NC(=O)Nc1ccc2c(c1)CC(=O)N([C@@H](C)CO)C[C@H](C)[C@@H](CN(C)Cc1ccc(Cl)c(Cl)c1)O2,inactive: 13.1%
3,C[C@H](CO)N1C[C@H](C)[C@@H](CN(C)Cc2ccncc2)Oc2ccc(NC(=O)Cc3cn(C)c4ccccc34)cc2C1=O,inconclusive: 78.5%
4,C[C@@H]1CN([C@H](C)CO)C(=O)c2cccc(NC(=O)c3ccncc3)c2O[C@H]1CN(C)Cc1ccc(C(=O)Nc2ccccc2N)cc1,inactive: 9.38%
5,CC1(C)Cc2nc(-c3ccccc3)nc(SCC(=O)Nc3ccc(Br)cc3)c2CO1,active: 113%
6,COc1ccc(NC(=O)Nc2ccc3c(c2)C(=O)N([C@H](C)CO)C[C@H](C)[C@H](CN(C)C)O3)cc1,inconclusive: 281%
7,NC(=O)C(Cc1ccccc1)N1C(=O)C2C3C=CC(C3)C2C1=O (stereo not given),inactive: -6.78%
8,Cc1ccccc1N=C(N)N=C(N)N,inconclusive: 89.2%
9,O=c1c2ccccc2nc(/C=C/c2cc(Br)ccc2O)n1CCCO,inconclusive: 82.3%
10,C[C@H]1CN([C@@H](C)CO)C(=O)c2cccc(NC(=O)c3ccncc3)c2O[C@H]1CN(C)C(=O)NC1CCCCC1,inactive: -8.59%
11,CS(=O)(=O)/C(C#N)=C/c1cccn1-c1ccc(OC(F)(F)F)cc1,inactive: -0.548%
12,COc1ccc(S(=O)(=O)Nc2ccc3c(c2)C(=O)N([C@H](C)CO)C[C@@H](C)[C@H](CN(C)Cc2ccc(C(=O)O)cc2)O3)cc1,inconclusive: 276%
13,C[C@@H]1CCCCO[C@H](CN(C)Cc2ccc(C(=O)O)cc2)[C@@H](C)CN([C@H](C)CO)C(=O)c2cc(NC(=O)Nc3ccccc3)ccc2O1,inactive: 22.5%
14,Cc1noc(C)c1NC(=O)N(C)C[C@@H]1Oc2c(NC(=O)c3ccc(-c4nccs4)cc3)cccc2C(=O)N([C@H](C)CO)C[C@H]1C,inactive: -4.35%
15,C[C@H](CO)N1C[C@H](C)[C@@H](CN(C)Cc2ccc(C(F)(F)F)cc2)Oc2ccc(NS(=O)(=O)c3ccc(F)cc3)cc2C1=O,inconclusive: 80%
16,C[C@H]1CN([C@@H](C)CO)C(=O)c2cccc(NS(=O)(=O)c3ccccc3)c2O[C@H]1CN(C)CC1CCCCC1,inactive: -7.32%
17,Cc1ccc(S(=O)(=O)Nc2ccc3c(c2)C(=O)N([C@H](C)CO)C[C@H](C)[C@@H](CN(C)S(=O)(=O)c2ccccc2)OCCCC[C@@H](C)O3)cc1,active: 137%
18,C[C@H](CO)N1C[C@H](C)[C@@H](CN(C)Cc2ccc(Oc3ccccc3)cc2)Oc2ccc(NC(=O)Nc3ccc4c(c3)OCO4)cc2C1=O,inconclusive: 80.7%
19,C[C@@H]1CN([C@@H](C)CO)C(=O)Cc2cc(NC(=O)CCC(F)(F)F)ccc2O[C@@H]1CN(C)C(=O)Nc1ccc(C(F)(F)F)cc1,inactive: 22.9%
20,Cc1ccc2c(c1)c1nc3ccccc3nc1n2CCN1CCOCC1,active: 78%
